Data as given in PubChem BioAssay AID504791 (Drosophila RNAi Screening Center, 2011)
In all, the deposit lists about 23,000 reagents; this is an unselected part of those with a known target gene and a result. Of all reagents, 199 (0.86%) got an active call. 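Plate-scaled ratios behind the calls are not deposited; printed light signals are raw; many rows marked increased or decreased are still called inactive.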 Reagents against one gene are numbered here. Not stated in the record: the direction of the score.

Purpose: 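Genes whose knock-down strengthens or weakens small-RNA reporter silencing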 (primary screen)
Cells: Drosophila S2-derived reporter cells
Knock-down reagent: long dsRNA against Drosophila genes, about 150-250 ng dsRNA per well (siRNA assay); about 80-120 ng (miRNA assay)
Duration: about 5 days (siRNA assay); about 4 days (miRNA assay)
Conditions: copper sulfate induction of reporters: 25 µM (siRNA assay); 200 mM stated (miRNA assay), 1-2 days before reading
Measurement: 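Per-well ratio of Renilla over firefly light, expressed relative to that plate's average ratio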
Units: stable assay Renilla, run 1 in luminescence; stable assay firefly, run 1 in luminescence
Hit rule: 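First-pass picks had plate-scaled ratios over 1.5 for the siRNA assay, over 1.6 for the miRNA assay, or under 0.6; two distinct dsRNAs had to score alike on retest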

What is on record for Mondo #1?
stable assay Renilla, run 1: 87604; stable assay firefly, run 1: 4.51e5; Outcome: inactive

Which result is listed for Mondo #2?
stable assay Renilla, run 1: 5563; stable assay firefly, run 1: 3.47e5; Outcome: inactive

What is on record for Mondo #3?
stable assay Renilla, run 1: 9221; stable assay firefly, run 1: 4.85e5; Outcome: inactive

With CG42570, what was measured?
stable assay Renilla, run 1: 6332; stable assay firefly, run 1: 6.12e5; Outcome: inactive

With ZnT33D, how do the results read?
stable assay Renilla, run 1: 6839; stable assay firefly, run 1: 3.13e5; Outcome: inactive

For NimC4, what was measured?
stable assay Renilla, run 1: 7164; stable assay firefly, run 1: 4.19e5; Outcome: inactive

For CG6295, what does the deposit list?
stable assay Renilla, run 1: 7855; stable assay firefly, run 1: 4.87e5; Outcome: inactive

How did the screen score alpha-Est4?
stable assay Renilla, run 1: 6963; stable assay firefly, run 1: 3.84e5; Outcome: inactive

Which result is listed for colt?
stable assay Renilla, run 1: 39182; stable assay firefly, run 1: 4.07e5; Outcome: inactive

With CG5986, what was measured?
stable assay Renilla, run 1: 11866; stable assay firefly, run 1: 3.82e5; Outcome: inactive

Which result is listed for Set?
stable assay Renilla, run 1: 9314; stable assay firefly, run 1: 5.06e5; Outcome: inactive

Which result is listed for Polr3F?
stable assay Renilla, run 1: 5480; stable assay firefly, run 1: 2.91e5; Outcome: inactive

Which result is listed for HmgZ #1?
stable assay Renilla, run 1: 5646; stable assay firefly, run 1: 5.35e5; Outcome: inactive

What did the screen give for HmgZ #2?
stable assay Renilla, run 1: 4748; stable assay firefly, run 1: 5.05e5; Outcome: inactive

For beag, what was measured?
stable assay Renilla, run 1: 8761; stable assay firefly, run 1: 4.73e5; Outcome: inactive

What is on record for CG16758 #1?
stable assay Renilla, run 1: 6234; stable assay firefly, run 1: 3.79e5; Outcome: inactive

How did the screen score CG16758 #2?
stable assay Renilla, run 1: 9783; stable assay firefly, run 1: 3.71e5; Outcome: inactive

For Ccp84Af, what does the deposit list?
stable assay Renilla, run 1: 7322; stable assay firefly, run 1: 4.87e5; Outcome: inactive

How did the screen score Pal1?
stable assay Renilla, run 1: 9575; stable assay firefly, run 1: 4.89e5; Outcome: inactive
